In PubChem BioAssay AID624297 (National Center for Advancing Translational Sciences (NCATS), 2012):
Hit rate of the full screen: of about 340,000 compounds, about 6,200 (1.8%) were called active. The inconclusive results got no clear call from the source; some entries with a clear call stand among them for comparison. Calls come from the whole dose curve; as a rule, active = well fitted activation curve with a large enough effect; inconclusive = small, poorly fitted or top-dose-only effect; inactive = no such curve, though single readings can be large or run the other way. Potencies of inconclusive entries are doubtful fits and often do not repeat.

test: A quantitative high throughput screen for small molecules that induce DNA re-replication in SW480 colon adenocarcinoma cells.; note: nearly all actives have a fitted effect of over 55% in size; for re-replication activation: % of control where 0% means no effect; conditions: Hoechst DNA content imaging, 48 h; re-replication activation: at 46.1 µM (top of the series) unless noted
In short: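 Hoechst fluorescence of nuclei (405 nm excitation, 500-530 nm emission) measured by plate-scanning imager after 48 hr compound exposure at 37 C; re-replication scored as increased number of nuclei with elevated intensity.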
Potency is the fitted concentration of half-maximal effect.

Row | SMILES | Potency | re-replication activation
1 | COc1ccc(C(=O)N=C2SC3CS(=O)(=O)CC3N2c2ccc(N(C)C)cc2)cc1OC (stereo unspecified) | inconclusive: 29.1 µM [activator, single point] | 
2 | COC(=O)C1(Cc2ccccc2)NC(c2ccccc2C)C2C(=O)N(c3ccc4c(c3)OCO4)C(=O)C21 (stereo unspecified) | inconclusive: 1.3 µM [activator, full curve, poor fit] | 
3 | CCOc1cc(/C=C2\C(=O)ON=C2c2ccccc2)ccc1OC | inconclusive: 16.4 µM [activator, single point] | 
4 | COCCNC(=O)CN(C(=O)Cn1nnc2ccccc21)c1ccccc1 |  | inactive: -1.15%
5 | O=C(/C=C/c1ccccc1)Nc1nnc(SCC(=O)c2ccc3ccccc3c2)s1 | inconclusive: 14.6 µM [activator, partial curve] | 
6 | COc1ccc(NC(=S)NC(=O)C2CCCCC2)cc1 | inconclusive: 20.6 µM [activator, single point] | 
7 | C/C(=N\NC(=O)COc1cccc(Cl)c1)c1ccc2c(c1)OCCO2 | inconclusive: 14.6 µM [activator, single point] | 
8 | COc1ccc(/C=N/NC(=O)c2cc3c(ccc4ccccc43)o2)c(OC)c1 | inconclusive: 29.1 µM [activator, single point] | 
9 | Cc1ccc2c(c1)c(N=NC(N)=S)c(O)n2Cc1ccccc1 |  | inactive: -0.325%
10 | CCN(Cc1cc2cc(C)ccc2[nH]c1=O)C(=O)c1cccc(OC)c1 |  | inactive: 6.39%
11 | C=CC[C@H]1CC(C)=C[C@H](CC=C)N1C(=O)c1cc(COc2ccccc2SC)on1 | inconclusive: 29.1 µM [activator, partial curve, poor fit] | 
12 | CCC(C)NC(=S)Nc1ccc2nc(N3CCN(CC)CC3)cc(C)c2c1 (stereo unspecified) | inconclusive: 29.1 µM [activator, single point] | 
13 | Cc1ccc(S(=O)(=O)N(C)C)cc1NC(=O)COC(=O)C1CCN(S(=O)(=O)c2cccs2)CC1 | inconclusive: 23.1 µM [activator, single point] | 
14 | COc1cc2c(cc1OC)/C(=C/c1ccc(Br)cc1)C(=O)OC2 | inconclusive: 18.4 µM [activator, single point] | 
15 | Cc1ccc(S(=O)(=O)N2CCC(n3nnc4cc(C)ccc43)CC2)cc1 |  | inactive: -0.0208%
16 | CC1CCN(C(=O)CSc2nnc(CNc3ccc(F)cc3)n2Cc2ccco2)CC1 | inconclusive: 8.91 µM [activator, partial curve] | 
17 | CC1CCc2nc(/C(C#N)=C/c3ccncc3)sc2C1 (stereo unspecified) | active: 7.31 µM | 
18 | CC(C)C[C@H](NC(=O)c1nc[nH]c1C(=O)N[C@@H](CC(C)C)C(=O)OC(C)(C)C)C(=O)OCc1ccccc1 | inconclusive: 23.1 µM [activator, partial curve, poor fit] | 
19 | NC(=O)c1cc2cc(Br)ccc2o/c1=N/NC(=O)c1cccc(F)c1 | inconclusive: 2.31 µM [activator, partial curve, poor fit] | 
20 | CC(=O)NS(=O)(=O)c1ccc(NC(=O)c2ccccn2)cc1 | inconclusive: 0.651 µM [activator, single point] | 
21 | O=C(CNC(c1ccccc1)c1ccccc1)Nc1c(F)cccc1F | inconclusive: 23.1 µM [activator, partial curve, poor fit] | 
22 | CC(C)c1ccccc1NC(=O)C1CC(=O)N(C2CCCC2)C1 (stereo unspecified) |  | inactive: -13.1%
23 | Cc1ccccc1OCCCCCn1ccnc1 |  | inactive: -0.955%
24 | OC(COc1ccc(Cl)c2ccccc12)CN1CCN(c2ccccn2)CC1 (stereo unspecified) | inconclusive: 18.4 µM [activator, single point] | 

Row | SMILES | Potency | re-replication activation
25 | O=C1CCC(C(=O)N2CCCCO2)CN1Cc1cccc(F)c1 (stereo unspecified) |  | inactive: -3.75%
26 | O=C(COc1ccc2c3c(c(=O)oc2c1)CCC3)NCC(O)c1ccccc1 (stereo unspecified) |  | inactive: -18.8%
27 | CCn1ncc(/C=N/NC(=O)c2cc(Cl)ccc2OC)c1C | inconclusive: 29.1 µM [activator, partial curve, poor fit] | 
28 | Cc1cc(C)n(-c2cc(N3CCN(S(=O)(=O)c4ccc(Cl)cc4)CC3)ccc2[N+](=O)[O-])n1 |  | inactive: 10.4%
29 | COCCn1c(SCc2csc(-c3ccccc3)n2)nc2ccccc21 |  | inactive: 2.86%
30 | Cc1cc(=O)oc2ccc(OC(=O)CN3C(=O)c4cccc([N+](=O)[O-])c4C3=O)cc12 | inconclusive: 0.0058 µM [activator, full curve, poor fit] | 
31 | COCCn1c(SCCN2CCCCC2)nc2ccccc2c1=O |  | inactive: -3.31%
32 | COC(=O)c1ccccc1NC(=O)C1COc2ccccc2O1 (stereo unspecified) | inconclusive: 29.1 µM [activator, partial curve, poor fit] | 
33 | COc1ccc(/C=C/c2c(-c3ccc(OC)cc3)oc3ccc(-c4ccc(OC)cc4)cc23)cc1 | inconclusive: 18.4 µM [activator, partial curve, poor fit] | 
34 | O=C(CN1CCN(C(=O)c2ccc(-c3nc4ccccc4s3)o2)CC1)Nc1ccc(F)cc1 |  | inactive: -6.61%
35 | CCCCN(CCCC)S(=O)(=O)c1ccc(N2CCCC2=O)c([N+](=O)[O-])c1 |  | inactive: 21.6%
36 | O=c1[nH]c2ccccc2nc1/C=C/c1ccc(Cl)cc1 | active: 20.6 µM | 
37 | O=C(CNC(=O)N1CC(=O)Nc2ccccc21)Nc1ccccc1F |  | inactive: 9.69%
38 | CC(C)(C)c1cc(C2=CSC3=NCCN23)cc(C(C)(C)C)c1O | inconclusive: 16.4 µM [activator, single point] | 
39 | CCc1cc2c(nc1CC)CCN(CC/C(C)=N/OC[C@H]1O[C@H](c3ccccc3)C=C[C@@H]1Oc1ccc(OC)cc1)C2 | inconclusive: 25.9 µM [activator, partial curve, poor fit] | 
40 | Nc1ccc(S(=O)(=O)NC2(C(F)(F)F)NC(=O)N(c3ccc(F)cc3)C2=O)cc1 (stereo unspecified) |  | inactive: -9.88%
41 | O=C(NC1CCCCC1)N(Cc1cc2cc3c(cc2[nH]c1=O)OCCO3)CC1CCCO1 (stereo unspecified) | inconclusive: 29.1 µM [activator, single point] | 
42 | COc1ccccc1-n1nnnc1SCC(=O)Nc1ccc(C)c(N)c1 |  | inactive: -15.5%
43 | CCOc1ccc(CSC2=NCCN2)cc1[N+](=O)[O-] | inconclusive: 32.6 µM [activator, partial curve, poor fit] | 
44 | CC(=O)Nc1ccc(C=NNc2nnc(NN=Cc3ccc(NC(C)=O)cc3)c3ccccc23)cc1 | inconclusive: 29.1 µM [activator, single point] | 
45 | Cc1nn(-c2ccccc2)c(C)c1/C=N/NC(=O)c1cc(C23CC4CC(CC(C4)C2)C3)[nH]n1 |  | inactive: 19.6%
46 | CCOC(=O)[C@H]1[C@H]2COc3ccc(OC)cc3[C@@H]2N2C(=O)CN(C)C(=O)[C@@]12C |  | inactive: -6.11%
47 | CN1C(N)=NC(=O)/C1=C\c1ccc(Br)cc1 |  | inactive: 5.33%
48 | CCOC(=O)c1ccccc1OCc1cc(/C=N/n2cncn2)ccc1OC | inconclusive: 16.4 µM [activator, single point] | 

Compounds shown so far containing a furan ring, fused or not (four):
Row | SMILES | Potency | re-replication activation
8 | COc1ccc(/C=N/NC(=O)c2cc3c(ccc4ccccc43)o2)c(OC)c1 | inconclusive: 29.1 µM [activator, single point] | 
16 | CC1CCN(C(=O)CSc2nnc(CNc3ccc(F)cc3)n2Cc2ccco2)CC1 | inconclusive: 8.91 µM [activator, partial curve] | 
33 | COc1ccc(/C=C/c2c(-c3ccc(OC)cc3)oc3ccc(-c4ccc(OC)cc4)cc23)cc1 | inconclusive: 18.4 µM [activator, partial curve, poor fit] | 
34 | O=C(CN1CCN(C(=O)c2ccc(-c3nc4ccccc4s3)o2)CC1)Nc1ccc(F)cc1 |  | inactive: -6.61%

The results go on.

Row | SMILES | Potency | re-replication activation
49 | CC(C)(C)c1ccc(OCC(O)CN(CCO)CC(O)Cn2ccc3ccccc32)cc1 (stereo unspecified) | inconclusive: 25.9 µM [activator, single point] | 
50 | Cc1ccc(NC(=Nc2ccc(Br)cc2)N2CCOCC2)cc1C |  | inactive: 25.4%
51 | CC(/C=C/c1ccccc1F)=N\NC(=O)c1cccc(F)c1 | inconclusive: 18.4 µM [activator, partial curve, poor fit] | 
52 | Cn1c2c(c(=O)n(C)c1=O)C(C(F)(F)F)(C(F)(F)F)N=C(c1ccccc1Cl)N2 |  | inactive: -2.97%
53 | CCOC(=O)c1ccc(NC(=O)c2cn(-c3ccccc3)nc2-c2ccncc2)cc1 | inconclusive: 29.1 µM [activator, single point] | 
54 | COc1ccc(/C=C2\C(=O)ON=C2c2ccccc2)cc1 | inconclusive: 18.4 µM [activator, single point] | 
55 | Cc1cc(/C=C2/NC(=O)N(Cc3ccccc3F)C2=O)c(C)n1-c1ccccn1 | active: 0.82 µM | 
56 | COC(=O)Cc1cc(=O)n2c(nc3ccccc32)[nH]1 |  | inactive: -17.4%
57 | CC1CC1C(=O)OCC(=O)Nc1cccc([N+](=O)[O-])c1 (stereo unspecified) |  | inactive: 0.22%
58 | CCn1nc(NC(=O)C(C)C)c2cc3cccc(C)c3nc21 | active: 8.2 µM | 
59 | CCN(CC)c1cc(C)c2cc(NC(=O)c3ccccc3OC)ccc2n1 | inconclusive: 0.058 µM [activator, full curve, poor fit] | 
60 | COc1ccccc1C(=O)Nc1nc(-c2ccc(S(=O)(=O)N3CCOCC3)cc2)cs1 |  | inactive: 7.48%
61 | COc1ccc(NC(=O)N2CCOCC2)cc1 | inconclusive: 16.4 µM [activator, single point] | 
62 | CCOC(=O)Cc1csc(NC(=O)c2ccc3ncsc3c2)n1 | inconclusive: 10.3 µM [activator, single point] | 
63 | COc1cc2[nH]c(=S)nc(NCc3ccc(C)cc3)c2cc1OC | inconclusive: 23.1 µM [activator, single point] | 
64 | COc1ccccc1C(=O)O/N=C1/CCCc2c1ccc(OC)c2[N+](=O)[O-] |  | inactive: -1.21%
65 | Cn1c(C2CCCCC2)nc2cc(N)ccc21 |  | inactive: -5.86%
66 | COc1ccc(NC(=O)NC2CCCCCCC2)cc1OC | inconclusive: 23.1 µM [activator, single point] | 
67 | CCOc1ccc(C(C(=O)NC2CCCC2)N(Cc2ccccc2)C(=O)c2nsc(Cl)c2Cl)cc1 (stereo unspecified) | inconclusive: 23.1 µM [activator, single point] | 
68 | O=C(CSc1ccc(F)cc1)Nc1cccc(S(=O)(=O)N2CCOCC2)c1 |  | inactive: 4.76%
69 | CCOC(=O)C1C(c2cc(OC)c(O)c(OC)c2)NC(=S)NC1(O)C(F)(F)F (stereo unspecified) | inconclusive: 23.1 µM [activator, single point] | 
70 | COC(=O)N1C(=O)[C@@](Cc2ccccc2)(c2ccccc2)N1C(=O)OC | inconclusive: 18.4 µM [activator, single point] | 
71 | O=C(CCCN1C(=O)/C(=C/c2ccccc2Cl)SC1=S)N1CCOCC1 | inconclusive: 18.4 µM [activator, single point] | 
